Experimental findings from the supplement of paper PMC10849652 are described below.

By UniProt entry, the sequences of proteins in these tests, tags left out. Where a name states a change or a piece, a line headed by the entry shows the natural chain unless it says otherwise.
UniProt Q9BPX3, whole entry, looked up: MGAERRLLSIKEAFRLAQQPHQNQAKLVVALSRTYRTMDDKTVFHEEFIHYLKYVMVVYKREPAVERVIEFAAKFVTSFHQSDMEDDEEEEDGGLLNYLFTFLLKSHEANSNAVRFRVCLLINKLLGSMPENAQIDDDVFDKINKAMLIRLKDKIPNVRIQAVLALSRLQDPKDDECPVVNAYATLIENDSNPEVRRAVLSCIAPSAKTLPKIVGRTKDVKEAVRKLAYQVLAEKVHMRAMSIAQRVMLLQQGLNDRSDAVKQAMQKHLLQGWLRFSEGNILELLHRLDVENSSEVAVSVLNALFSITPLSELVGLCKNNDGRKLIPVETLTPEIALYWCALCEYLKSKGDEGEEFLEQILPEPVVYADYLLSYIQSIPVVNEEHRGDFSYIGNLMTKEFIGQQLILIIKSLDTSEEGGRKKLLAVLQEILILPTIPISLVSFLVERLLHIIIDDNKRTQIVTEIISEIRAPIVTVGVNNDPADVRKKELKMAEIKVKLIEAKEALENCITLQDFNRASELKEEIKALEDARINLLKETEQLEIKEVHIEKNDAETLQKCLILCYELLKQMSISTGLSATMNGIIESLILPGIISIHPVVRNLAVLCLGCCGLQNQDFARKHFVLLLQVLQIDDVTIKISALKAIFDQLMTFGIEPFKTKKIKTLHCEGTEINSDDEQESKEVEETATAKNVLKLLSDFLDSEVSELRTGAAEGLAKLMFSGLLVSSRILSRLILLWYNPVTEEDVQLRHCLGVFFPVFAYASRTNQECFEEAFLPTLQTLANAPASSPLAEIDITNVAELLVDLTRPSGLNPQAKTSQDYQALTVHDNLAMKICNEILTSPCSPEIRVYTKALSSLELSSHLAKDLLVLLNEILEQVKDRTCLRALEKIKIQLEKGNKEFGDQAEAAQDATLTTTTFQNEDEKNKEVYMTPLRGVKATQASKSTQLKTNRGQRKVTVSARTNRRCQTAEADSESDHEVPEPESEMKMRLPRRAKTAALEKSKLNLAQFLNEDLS
UniProt Q969H8: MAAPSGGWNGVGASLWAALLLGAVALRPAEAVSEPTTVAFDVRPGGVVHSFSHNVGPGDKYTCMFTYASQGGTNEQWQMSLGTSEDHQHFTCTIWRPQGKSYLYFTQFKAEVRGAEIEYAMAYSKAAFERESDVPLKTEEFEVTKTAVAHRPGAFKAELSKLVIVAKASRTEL
UniProt Q53F19: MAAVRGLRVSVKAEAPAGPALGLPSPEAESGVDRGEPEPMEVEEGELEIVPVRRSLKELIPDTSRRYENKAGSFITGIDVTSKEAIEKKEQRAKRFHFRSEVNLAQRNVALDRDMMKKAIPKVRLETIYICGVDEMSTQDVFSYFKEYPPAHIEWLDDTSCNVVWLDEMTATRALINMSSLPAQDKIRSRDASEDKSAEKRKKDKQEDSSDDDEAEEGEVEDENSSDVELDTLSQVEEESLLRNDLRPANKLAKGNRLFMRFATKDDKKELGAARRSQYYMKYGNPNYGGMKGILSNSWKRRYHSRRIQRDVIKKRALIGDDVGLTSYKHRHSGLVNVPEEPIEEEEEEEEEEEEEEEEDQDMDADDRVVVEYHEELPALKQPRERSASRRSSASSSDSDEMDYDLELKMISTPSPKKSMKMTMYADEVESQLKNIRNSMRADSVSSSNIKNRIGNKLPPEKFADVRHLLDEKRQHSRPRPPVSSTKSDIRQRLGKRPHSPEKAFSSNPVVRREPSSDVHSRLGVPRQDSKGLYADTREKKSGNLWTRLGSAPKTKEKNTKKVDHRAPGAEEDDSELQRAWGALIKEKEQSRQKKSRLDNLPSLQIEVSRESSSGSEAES
UniProt P41227: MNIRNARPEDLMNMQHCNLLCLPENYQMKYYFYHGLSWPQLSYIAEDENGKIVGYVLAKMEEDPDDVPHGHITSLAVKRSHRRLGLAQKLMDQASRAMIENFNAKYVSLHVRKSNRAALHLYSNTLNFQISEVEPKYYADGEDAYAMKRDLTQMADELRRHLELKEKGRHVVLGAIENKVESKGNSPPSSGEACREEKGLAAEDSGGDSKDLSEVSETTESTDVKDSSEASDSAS
UniProt Q68D85: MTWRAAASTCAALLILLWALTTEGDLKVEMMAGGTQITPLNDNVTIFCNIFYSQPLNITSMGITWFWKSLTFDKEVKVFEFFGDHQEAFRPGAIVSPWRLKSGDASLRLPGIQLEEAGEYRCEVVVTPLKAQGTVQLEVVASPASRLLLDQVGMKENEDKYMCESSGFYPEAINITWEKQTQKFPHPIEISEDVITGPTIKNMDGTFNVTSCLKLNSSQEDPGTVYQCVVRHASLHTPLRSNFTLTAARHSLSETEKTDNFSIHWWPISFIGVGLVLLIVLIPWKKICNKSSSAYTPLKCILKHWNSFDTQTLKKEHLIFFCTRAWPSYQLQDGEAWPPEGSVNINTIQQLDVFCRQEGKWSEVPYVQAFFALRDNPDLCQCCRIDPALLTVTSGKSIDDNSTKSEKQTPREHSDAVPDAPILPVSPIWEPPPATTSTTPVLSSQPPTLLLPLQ
UniProt Q14CX7, whole entry, looked up: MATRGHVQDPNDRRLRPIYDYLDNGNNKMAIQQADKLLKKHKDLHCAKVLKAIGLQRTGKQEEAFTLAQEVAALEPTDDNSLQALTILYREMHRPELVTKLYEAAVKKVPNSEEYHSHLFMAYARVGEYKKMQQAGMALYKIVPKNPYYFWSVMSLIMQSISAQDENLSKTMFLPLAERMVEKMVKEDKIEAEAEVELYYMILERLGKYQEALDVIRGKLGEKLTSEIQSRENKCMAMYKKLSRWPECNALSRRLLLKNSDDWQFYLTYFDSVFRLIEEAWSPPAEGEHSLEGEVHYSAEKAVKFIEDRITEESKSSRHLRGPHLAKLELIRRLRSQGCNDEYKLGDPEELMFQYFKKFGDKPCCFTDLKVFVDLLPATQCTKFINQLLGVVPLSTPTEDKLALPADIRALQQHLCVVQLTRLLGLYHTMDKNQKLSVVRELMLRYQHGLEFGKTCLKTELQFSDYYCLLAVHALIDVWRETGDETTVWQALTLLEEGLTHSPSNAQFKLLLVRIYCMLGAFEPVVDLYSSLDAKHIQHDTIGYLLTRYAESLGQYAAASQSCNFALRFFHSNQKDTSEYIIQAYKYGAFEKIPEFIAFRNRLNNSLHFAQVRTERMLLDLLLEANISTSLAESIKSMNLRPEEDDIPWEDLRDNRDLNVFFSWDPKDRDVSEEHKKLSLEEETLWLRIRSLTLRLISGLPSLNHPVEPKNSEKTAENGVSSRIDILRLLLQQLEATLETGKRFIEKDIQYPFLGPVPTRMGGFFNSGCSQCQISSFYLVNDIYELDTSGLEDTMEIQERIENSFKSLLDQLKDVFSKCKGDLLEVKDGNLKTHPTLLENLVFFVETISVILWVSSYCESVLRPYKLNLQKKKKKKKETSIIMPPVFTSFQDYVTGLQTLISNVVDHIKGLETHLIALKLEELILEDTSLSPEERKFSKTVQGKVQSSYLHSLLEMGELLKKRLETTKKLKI
UniProt P55209: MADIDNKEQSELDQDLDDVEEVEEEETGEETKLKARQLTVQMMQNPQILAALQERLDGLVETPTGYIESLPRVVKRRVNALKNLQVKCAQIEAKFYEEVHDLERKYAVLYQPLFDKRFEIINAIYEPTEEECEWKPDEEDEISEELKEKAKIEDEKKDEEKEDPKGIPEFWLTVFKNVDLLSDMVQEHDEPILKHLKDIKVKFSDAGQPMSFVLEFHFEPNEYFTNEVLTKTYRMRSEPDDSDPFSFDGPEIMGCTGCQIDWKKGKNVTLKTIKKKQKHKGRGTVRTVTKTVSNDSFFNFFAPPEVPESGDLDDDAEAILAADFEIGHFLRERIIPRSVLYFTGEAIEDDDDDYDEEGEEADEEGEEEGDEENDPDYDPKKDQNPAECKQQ
UniProt Q9H115: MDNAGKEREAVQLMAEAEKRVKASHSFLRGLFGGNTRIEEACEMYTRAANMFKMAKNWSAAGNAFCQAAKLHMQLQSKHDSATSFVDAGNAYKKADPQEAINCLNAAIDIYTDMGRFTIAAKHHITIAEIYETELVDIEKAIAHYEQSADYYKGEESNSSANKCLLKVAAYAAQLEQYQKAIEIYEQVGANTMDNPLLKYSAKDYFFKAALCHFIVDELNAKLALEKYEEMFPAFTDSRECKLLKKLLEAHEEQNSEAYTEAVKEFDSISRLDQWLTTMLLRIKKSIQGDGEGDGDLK
UniProt O75376, whole entry, looked up: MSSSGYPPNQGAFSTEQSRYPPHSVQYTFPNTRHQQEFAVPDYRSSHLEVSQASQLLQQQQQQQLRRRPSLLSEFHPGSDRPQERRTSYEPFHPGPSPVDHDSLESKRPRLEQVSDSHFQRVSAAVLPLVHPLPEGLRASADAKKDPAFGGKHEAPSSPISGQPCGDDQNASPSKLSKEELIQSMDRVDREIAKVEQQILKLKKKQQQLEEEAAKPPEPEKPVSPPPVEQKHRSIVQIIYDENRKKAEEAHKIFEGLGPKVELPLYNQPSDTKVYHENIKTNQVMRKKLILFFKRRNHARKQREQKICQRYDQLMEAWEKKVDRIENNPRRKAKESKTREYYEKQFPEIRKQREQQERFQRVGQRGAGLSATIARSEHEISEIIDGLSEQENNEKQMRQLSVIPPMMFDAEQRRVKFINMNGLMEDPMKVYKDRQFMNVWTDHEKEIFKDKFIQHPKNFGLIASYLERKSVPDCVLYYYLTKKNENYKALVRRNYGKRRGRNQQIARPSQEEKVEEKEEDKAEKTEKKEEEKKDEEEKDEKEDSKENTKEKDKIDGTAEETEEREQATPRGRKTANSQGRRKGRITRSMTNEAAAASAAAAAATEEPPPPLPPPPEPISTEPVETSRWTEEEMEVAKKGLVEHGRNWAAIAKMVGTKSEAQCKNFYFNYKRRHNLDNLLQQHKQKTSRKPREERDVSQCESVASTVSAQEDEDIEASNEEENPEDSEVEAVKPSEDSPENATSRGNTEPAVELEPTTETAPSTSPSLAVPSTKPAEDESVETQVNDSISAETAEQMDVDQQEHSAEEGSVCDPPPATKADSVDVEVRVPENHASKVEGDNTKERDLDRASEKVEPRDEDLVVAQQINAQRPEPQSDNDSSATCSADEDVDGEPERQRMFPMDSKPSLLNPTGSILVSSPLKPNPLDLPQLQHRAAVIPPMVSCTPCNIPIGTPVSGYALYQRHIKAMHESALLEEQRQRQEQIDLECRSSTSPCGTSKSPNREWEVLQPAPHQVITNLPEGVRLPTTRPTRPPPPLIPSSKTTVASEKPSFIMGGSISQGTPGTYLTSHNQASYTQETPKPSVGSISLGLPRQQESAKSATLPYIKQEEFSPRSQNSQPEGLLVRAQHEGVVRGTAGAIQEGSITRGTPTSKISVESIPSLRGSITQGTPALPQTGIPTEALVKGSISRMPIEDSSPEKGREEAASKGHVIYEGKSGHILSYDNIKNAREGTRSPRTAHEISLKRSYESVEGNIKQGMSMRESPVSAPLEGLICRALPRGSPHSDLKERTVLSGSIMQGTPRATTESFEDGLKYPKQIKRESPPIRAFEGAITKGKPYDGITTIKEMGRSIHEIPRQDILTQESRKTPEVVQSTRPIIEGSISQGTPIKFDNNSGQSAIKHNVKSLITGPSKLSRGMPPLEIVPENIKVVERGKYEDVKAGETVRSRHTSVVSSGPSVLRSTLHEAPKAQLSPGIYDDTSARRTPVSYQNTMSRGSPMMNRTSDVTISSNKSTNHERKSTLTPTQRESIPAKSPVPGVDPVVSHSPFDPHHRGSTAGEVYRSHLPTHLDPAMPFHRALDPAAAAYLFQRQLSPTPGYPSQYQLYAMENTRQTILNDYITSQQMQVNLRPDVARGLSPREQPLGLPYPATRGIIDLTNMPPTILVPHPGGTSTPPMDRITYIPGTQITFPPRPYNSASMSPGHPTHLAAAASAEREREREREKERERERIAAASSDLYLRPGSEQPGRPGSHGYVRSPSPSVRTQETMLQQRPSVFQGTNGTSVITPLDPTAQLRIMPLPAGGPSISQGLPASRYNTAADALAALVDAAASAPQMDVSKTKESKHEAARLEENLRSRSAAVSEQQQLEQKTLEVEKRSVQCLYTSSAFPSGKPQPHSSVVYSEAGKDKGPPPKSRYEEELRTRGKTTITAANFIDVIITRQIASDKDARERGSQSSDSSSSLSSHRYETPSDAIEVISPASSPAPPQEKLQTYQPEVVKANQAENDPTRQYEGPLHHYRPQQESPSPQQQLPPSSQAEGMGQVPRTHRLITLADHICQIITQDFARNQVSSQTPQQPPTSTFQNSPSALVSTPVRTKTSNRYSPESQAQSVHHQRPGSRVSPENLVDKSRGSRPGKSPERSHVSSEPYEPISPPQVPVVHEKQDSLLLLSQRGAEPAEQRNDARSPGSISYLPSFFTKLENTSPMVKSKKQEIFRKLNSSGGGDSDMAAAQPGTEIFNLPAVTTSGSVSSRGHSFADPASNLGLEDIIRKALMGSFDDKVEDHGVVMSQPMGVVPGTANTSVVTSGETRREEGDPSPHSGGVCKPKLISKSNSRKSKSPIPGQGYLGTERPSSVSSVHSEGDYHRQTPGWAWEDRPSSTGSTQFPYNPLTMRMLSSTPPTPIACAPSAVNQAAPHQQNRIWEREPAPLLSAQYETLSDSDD

This is one part of the list.

Holding throughout (test): log2 fold change, soluble protein after heating vs DMSO (PISA); higher = thermal stabilisation; K562 lysate, 10 uM; active = over 0.2 and 3.5 SD of the protein, either way, in both replicates (recomputed)
Compound in assay [1]: NCC(=O)Nc1ccc(-n2nc(C(F)(F)F)cc2-c2ccc3c(ccc4ccccc43)c2)cc1
The gist of the method: (§1)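 Thermal stability, expressed as log-two fold change relative to solvent controls, is given from duplicates. Crude K562 extract in PBS pH 7.4 with 1 mM MgCl2, at 1 mg/mL protein, was treated with 10 μM compound for 30 min and heated in aliquots for 3 min across 48°C-58°C. After pooling, adjustment to 0.5% NP-40 at 4°C and centrifugation at 21,000xg for 90 min, supernatant protein was measured by TMTpro 16plex LC-MS/MS with channel sums equalised.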

Compound in the next assay: O=C(CCCCCCC(=O)Nc1ccccc1)NO [vorinostat]
The essentials:
as §1

Compound in a further assay: O=C(O)c1ccc2c(c1)nc(Nc1cccc(Cl)c1)c1ccncc12 [silmitasertib]
The gist of the method:
as §1

Compound in assay [2]: O=C1NC(=O)C(c2cnc3ccccn23)=C1c1cn2c3c(cc(F)cc13)CN(C(=O)N1CCCCC1)CC2
The essentials:
as §1

Compound in a further assay: c1cn2cc(-c3ccc4cn[nH]c4c3)nc(Nc3ccc(N4CCOCC4)cc3)c2n1 [entospletinib]
The gist of the method: as §1

On to N4BP1 (UniProt O75113), for which the log2 fold change in assay [1] was inactive: 0.003; in the assay with vorinostat, inactive: -0.107; with silmitasertib, inactive: -0.015; in assay [2], inactive: 0.049; with entospletinib it was inactive: 0.
Consider MYO1D (UniProt O94832), for which the log2 fold change in assay [1] is inactive: 0.046; with vorinostat, active: -0.418; in the assay with silmitasertib, inactive: 0.012; in assay [2], inactive: -0.027; with entospletinib, inactive: -0.002.
On the same counts, the results for NCOA5 (UniProt Q9HCD5) are inactive: 0.014, inactive: 0.123, inactive: -0.005, inactive: 0 and inactive: -0.097.
For the target NCAPG (UniProt Q9BPX3), the log2 fold change in assay [1] was inactive: -0.001; with vorinostat, active: -0.283; in the assay with silmitasertib it was inactive: 0.029; in assay [2], inactive: -0.003; with entospletinib it was inactive: -0.002.
Take MYDGF (UniProt Q969H8): the log2 fold change in assay [1] is inactive: 0.025; in the assay with vorinostat, inactive: 0.138; with silmitasertib it was inactive: 0.011; in assay [2], inactive: 0; with entospletinib, inactive: -0.001.
On the same counts, the results for NCOA7 (UniProt Q8NI08) are inactive: 0.038, inactive: -0.091, inactive: -0.012, inactive: -0.001 and inactive: -0.013.
On to MYOM1 (UniProt P52179), for which the log2 fold change in assay [1] was inactive: 0.062; in the assay with vorinostat it was inactive: 0.055; with silmitasertib, inactive: 0.014; in assay [2], inactive: 0.292; with entospletinib, inactive: 0.028.
On the same counts, the results for NCBP3 (UniProt Q53F19) are inactive: 0.108, inactive: -0.029, inactive: -0.101, inactive: -0.101 and inactive: -0.022.
On the same counts, the results for NAA10 (UniProt P41227) are inactive: -0.002, inactive: -0.029, inactive: -0.018, inactive: -0.023 and inactive: -0.004.
As for NCR3LG1 (UniProt Q68D85), the log2 fold change is inactive: 0.027 in assay [1]; inactive: 0.049 with vorinostat; inactive: -0.006 with silmitasertib; inactive: -0.008 in assay [2]; inactive: -0.01 with entospletinib.
On the same counts, the results for NATD1 (UniProt Q8N6N6) are inactive: 0.031, inactive: -0.196, inactive: -0.051, inactive: -0.011 and inactive: 0.06.
NAA25 (UniProt Q14CX7): the log2 fold change was inactive: -0.022 in assay [1]; inactive: 0.053 with vorinostat; inactive: 0.011 in the assay with silmitasertib; inactive: -0.011 in assay [2]; inactive: -0.017 in the assay with entospletinib.
MYH10 isoform 3 (UniProt P35580): the log2 fold change is inactive: 0.019 in assay [1]; inactive: 0.055 with vorinostat; inactive: 0.009 in the assay with silmitasertib; inactive: 0.011 in assay [2]; inactive: 0.004 in the assay with entospletinib.
NAP1L1 isoform 3 (UniProt P55209): the log2 fold change in assay [1] is inactive: 0.196; with vorinostat, inactive: -0.292; with silmitasertib, inactive: 0.153; in assay [2], inactive: -0.238; with entospletinib, inactive: -0.044.
For NAA15, A0A0B4J1W3, in that order: inactive: -0.038, inactive: -0.339, inactive: -0.1, inactive: -0.071 and inactive: 0.011.
For the target NAXE (UniProt Q8NCW5), the log2 fold change in assay [1] is inactive: -0.069; with vorinostat, inactive: 0.14; with silmitasertib it was inactive: -0.019; in assay [2], inactive: 0.011; with entospletinib, inactive: -0.011.
On the same counts, the results for NARS1 (UniProt O43776) are inactive: -0.016, inactive: -0.194, inactive: -0.01, inactive: -0.013 and inactive: 0.007.
In the case of MXRA7 (UniProt P84157), the log2 fold change in assay [1] was inactive: 0.118; with vorinostat, inactive: 0.262; with silmitasertib, inactive: -0.102; in assay [2] it was inactive: 0.099; in the assay with entospletinib, inactive: 0.021.
For NAPB (UniProt Q9H115), the log2 fold change in assay [1] was inactive: 0.14; with vorinostat, inactive: 0.022; with silmitasertib it was inactive: -0.047; in assay [2] it was inactive: 0.001; with entospletinib it was inactive: -0.016.
For the target NBEAL2 (UniProt Q6ZNJ1), the log2 fold change is inactive: -0.025 in assay [1]; active: -0.341 in the assay with vorinostat; inactive: 0.047 in the assay with silmitasertib; inactive: 0.02 in assay [2]; inactive: 0.026 with entospletinib.
For NAP1L4 isoform 2 (UniProt Q99733), in that order: inactive: -0.042, inactive: 0.11, inactive: 0.013, inactive: -0.002 and inactive: -0.01.
As for NADK2 (UniProt Q4G0N4), the log2 fold change in assay [1] was inactive: -0.002; with vorinostat it was inactive: -0.106; with silmitasertib it was inactive: 0.044; in assay [2], inactive: 0.003; with entospletinib, inactive: -0.001.
With NCAPH (UniProt Q15003), the log2 fold change in assay [1] is inactive: -0.031; with vorinostat, active: -0.33; with silmitasertib, inactive: 0.009; in assay [2], inactive: -0.01; in the assay with entospletinib, inactive: -0.004.
For NCOR1 (UniProt O75376), in that order: inactive: 0.021, active: -0.239, inactive: -0.035, inactive: 0.014 and inactive: -0.01.
